The target of assay [1] is CDK1 (human (endogenous in PC9 and H358)) (UniProt P06493). In words: co-IP; endogenous proteins from lysates of LUAD cells (PC9, H358), with or without LINC00880 overexpression; Pierce Classic Magnetic IP/Co-IP Kit, western blotting. On the technique in general: In western blotting, separated proteins are transferred to a membrane and probed.
Another assay deals with Flag-CDK1 (UniProt P06493). The assay is described as follows: co-IP; PC9 cells transfected with plasmids encoding Myc-PRDX1 and Flag-CDK1, with increased LINC00880 expression; Pierce Classic Magnetic IP/Co-IP Kit, western blotting.

Sequences of proteins named here, by UniProt entry; tags and fusion partners are left off.
UniProt P06493: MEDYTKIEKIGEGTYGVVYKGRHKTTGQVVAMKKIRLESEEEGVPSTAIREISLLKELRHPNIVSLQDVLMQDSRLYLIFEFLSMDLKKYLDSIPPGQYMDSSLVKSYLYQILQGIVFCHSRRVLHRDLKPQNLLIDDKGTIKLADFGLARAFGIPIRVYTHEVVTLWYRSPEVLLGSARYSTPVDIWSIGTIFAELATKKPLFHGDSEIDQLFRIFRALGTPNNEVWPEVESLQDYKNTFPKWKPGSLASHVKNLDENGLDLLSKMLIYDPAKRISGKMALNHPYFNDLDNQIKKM

Results are given in words; binding and its absence hold for the method and conditions named. Binding seen in cells or lysates may run through a third protein. Some entries that bind do so weakly or less than the wild type. For some assays here: Sequences can lack the tags named with a protein.

B1: PRDX1 (protein, UniProt Q06830 1-199)
chain: MSSGNAKIGHPAPNFKATAVMPDGQFKDISLSDYKGKYVVFFFYPLDFTFVCPTEIIAFSDRAEEFKKLNCQVIGASVDSHFCHLAWVNTPKKQGGLGPMNIPLVSDPKRTIAQDYGVLKADEGISFRGLFIIDDKGILRQITVNDLPVGRSVDETLRLVQAFQFTDKHGEVCPAGWKPGSDTIKPDVQKSKEYFSKQK
Regarding B1, the binding result in assay [1] is “binds”.

B2: Myc-PRDX1 (protein, UniProt Q06830 1-199)
chain: MSSGNAKIGHPAPNFKATAVMPDGQFKDISLSDYKGKYVVFFFYPLDFTFVCPTEIIAFSDRAEEFKKLNCQVIGASVDSHFCHLAWVNTPKKQGGLGPMNIPLVSDPKRTIAQDYGVLKADEGISFRGLFIIDDKGILRQITVNDLPVGRSVDETLRLVQAFQFTDKHGEVCPAGWKPGSDTIKPDVQKSKEYFSKQK
As for B2, the binding entry in the assay with Flag-CDK1 is reported as “binds”.

The values above are taken from paper PMC10449921.
